Binding data for one substance are collected here from PMC10886541.

Chains of the proteins cited; added tags and fusions are not shown. Lines headed by an entry give the natural chain unless they say otherwise; changes in a name come on top. Residues count along the entry.
UniProt P41245: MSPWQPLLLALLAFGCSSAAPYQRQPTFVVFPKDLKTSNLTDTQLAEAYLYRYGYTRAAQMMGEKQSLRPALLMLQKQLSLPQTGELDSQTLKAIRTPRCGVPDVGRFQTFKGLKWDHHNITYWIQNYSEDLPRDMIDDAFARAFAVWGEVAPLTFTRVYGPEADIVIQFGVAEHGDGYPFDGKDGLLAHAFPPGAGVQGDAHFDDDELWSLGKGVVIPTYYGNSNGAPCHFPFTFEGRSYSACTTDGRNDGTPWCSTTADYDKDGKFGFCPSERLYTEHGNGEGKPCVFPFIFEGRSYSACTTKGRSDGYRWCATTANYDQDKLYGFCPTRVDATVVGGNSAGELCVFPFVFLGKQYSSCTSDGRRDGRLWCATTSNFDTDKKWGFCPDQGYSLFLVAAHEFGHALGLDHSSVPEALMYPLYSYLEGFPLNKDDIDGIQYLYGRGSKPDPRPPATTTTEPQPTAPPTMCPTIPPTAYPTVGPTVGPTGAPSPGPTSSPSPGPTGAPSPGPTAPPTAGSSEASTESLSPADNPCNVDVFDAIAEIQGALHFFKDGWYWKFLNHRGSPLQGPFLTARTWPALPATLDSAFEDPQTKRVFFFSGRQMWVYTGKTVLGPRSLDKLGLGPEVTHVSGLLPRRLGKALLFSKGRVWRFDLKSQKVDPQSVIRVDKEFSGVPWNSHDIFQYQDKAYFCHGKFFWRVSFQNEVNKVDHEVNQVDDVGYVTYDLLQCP
UniProt P11276, residues 33-2477: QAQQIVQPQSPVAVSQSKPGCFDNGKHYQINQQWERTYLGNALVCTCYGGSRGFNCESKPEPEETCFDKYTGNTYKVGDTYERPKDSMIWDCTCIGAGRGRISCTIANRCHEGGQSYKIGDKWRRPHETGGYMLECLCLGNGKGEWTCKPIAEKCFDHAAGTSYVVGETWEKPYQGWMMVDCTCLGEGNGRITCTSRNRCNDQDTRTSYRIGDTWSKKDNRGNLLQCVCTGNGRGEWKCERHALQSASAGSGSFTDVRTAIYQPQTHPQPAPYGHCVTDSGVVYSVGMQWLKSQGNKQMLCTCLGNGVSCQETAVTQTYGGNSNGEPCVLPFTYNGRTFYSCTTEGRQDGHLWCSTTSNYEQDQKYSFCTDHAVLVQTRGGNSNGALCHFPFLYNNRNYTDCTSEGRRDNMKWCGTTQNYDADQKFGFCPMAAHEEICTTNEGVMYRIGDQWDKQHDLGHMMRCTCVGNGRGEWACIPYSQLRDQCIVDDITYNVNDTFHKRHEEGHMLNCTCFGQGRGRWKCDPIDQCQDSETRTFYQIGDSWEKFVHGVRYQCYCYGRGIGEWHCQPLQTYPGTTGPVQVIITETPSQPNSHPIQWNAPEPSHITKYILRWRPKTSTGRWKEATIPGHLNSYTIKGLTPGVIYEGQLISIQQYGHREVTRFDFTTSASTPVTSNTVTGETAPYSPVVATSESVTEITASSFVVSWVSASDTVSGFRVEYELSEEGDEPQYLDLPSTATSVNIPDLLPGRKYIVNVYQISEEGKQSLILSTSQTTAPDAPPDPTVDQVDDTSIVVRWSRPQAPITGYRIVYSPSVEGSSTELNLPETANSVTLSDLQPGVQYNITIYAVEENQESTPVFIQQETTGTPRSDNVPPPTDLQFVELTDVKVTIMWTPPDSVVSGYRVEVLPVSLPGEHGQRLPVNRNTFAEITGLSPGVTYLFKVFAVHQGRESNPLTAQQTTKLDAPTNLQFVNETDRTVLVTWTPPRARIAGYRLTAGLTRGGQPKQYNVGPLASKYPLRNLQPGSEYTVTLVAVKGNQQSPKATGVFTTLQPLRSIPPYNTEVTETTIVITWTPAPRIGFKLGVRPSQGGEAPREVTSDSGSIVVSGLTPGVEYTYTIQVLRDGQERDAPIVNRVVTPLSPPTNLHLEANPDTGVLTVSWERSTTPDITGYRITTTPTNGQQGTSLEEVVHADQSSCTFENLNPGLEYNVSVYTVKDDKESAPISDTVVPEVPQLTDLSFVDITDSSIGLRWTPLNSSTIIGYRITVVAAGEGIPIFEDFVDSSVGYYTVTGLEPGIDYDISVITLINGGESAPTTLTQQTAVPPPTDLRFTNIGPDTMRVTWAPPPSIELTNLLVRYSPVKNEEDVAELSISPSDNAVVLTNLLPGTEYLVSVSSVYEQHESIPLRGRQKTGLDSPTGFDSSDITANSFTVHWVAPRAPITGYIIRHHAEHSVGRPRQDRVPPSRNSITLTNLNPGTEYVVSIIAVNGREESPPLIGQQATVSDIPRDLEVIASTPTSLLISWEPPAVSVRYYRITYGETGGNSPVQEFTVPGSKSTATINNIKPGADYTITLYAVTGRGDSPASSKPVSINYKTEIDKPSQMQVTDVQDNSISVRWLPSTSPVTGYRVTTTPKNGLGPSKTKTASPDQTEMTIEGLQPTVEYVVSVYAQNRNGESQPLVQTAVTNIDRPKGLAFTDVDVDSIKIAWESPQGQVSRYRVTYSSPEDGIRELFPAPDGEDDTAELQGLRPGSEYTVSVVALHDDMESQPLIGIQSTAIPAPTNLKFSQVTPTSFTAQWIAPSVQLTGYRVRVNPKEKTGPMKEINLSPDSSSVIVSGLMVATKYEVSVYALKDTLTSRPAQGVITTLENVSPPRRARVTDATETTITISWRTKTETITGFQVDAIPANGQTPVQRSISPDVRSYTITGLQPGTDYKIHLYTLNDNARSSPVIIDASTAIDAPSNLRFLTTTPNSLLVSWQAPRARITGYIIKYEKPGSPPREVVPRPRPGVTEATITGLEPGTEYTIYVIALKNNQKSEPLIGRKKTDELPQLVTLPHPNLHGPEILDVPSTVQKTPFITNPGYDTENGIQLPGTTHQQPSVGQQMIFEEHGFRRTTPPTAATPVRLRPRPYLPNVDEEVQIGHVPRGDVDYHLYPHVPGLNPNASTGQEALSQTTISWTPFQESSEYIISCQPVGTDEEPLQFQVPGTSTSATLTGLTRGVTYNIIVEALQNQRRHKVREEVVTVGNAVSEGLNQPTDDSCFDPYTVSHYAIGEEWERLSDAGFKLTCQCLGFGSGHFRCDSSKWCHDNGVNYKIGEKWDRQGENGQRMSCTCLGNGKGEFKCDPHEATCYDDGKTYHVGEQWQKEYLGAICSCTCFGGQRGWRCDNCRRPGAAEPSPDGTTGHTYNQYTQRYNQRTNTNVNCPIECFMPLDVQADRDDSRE

This experiment deals with matrix metalloprotease (MMP)-9 (mouse (endogenous in J774A.1)) (UniProt P41245). In words: affinity purification with mass spectrometry; anti-MMP-9 antibody (ab38898) or mouse IgG1 isotype control on Protein G Dynabeads, incubated overnight at 4 °C with 1.3 mg RIPA lysate of EVs from J774A.1 macrophages infected with S. Typhimurium (MOI 50); washes with 0.05% NP-40, 150 mM NaCl, 50 mM Tris-HCl pH 7.5; on-bead trypsin digest, LC-MS/MS; interactors chosen by MMP-9/IgG log2 ratio > 4.

Results are given in words; binding and its absence hold for the method and conditions named. Binding seen in cells or lysates may run through a third protein. Here binding means that the protein was enriched with, or labelled near, the bait; the list need not be complete.

For the substance “fibronectin (from UniProt P11276 33-2477)”, the binding result is reported as “binds”.
